# Assay results from the supplement of paper PMC8728848.
# The other results are listed elsewhere or left out.
# B1: PX14404-bvu-534-26-534 (Bacteroides vulgatus) (protein)
# chain: EDPRGKLTPENFFSTQDELNMSIYALYQKVNLSQVYTNMQLPQWQGDDITTNPGSNKQPAAEMDKFAAANNNKGVKDAWNMHYAIVKAANLIIQGASKTPTTQDEINIALGQAKFWRAYAYFTLVRLWGPLPMNLDNVNDDYTKPLSPVEEVYGHIVQDLTEAEAVLPTGYSGSPRFLNGVNVYVTRQAAKSTLAAVYMAMAGWPMNKTEYYAKAAEKAKEVIEGVNRGEYEYKLDKDYKDVYAMSNNYNNETVLGINYSPFVDWAQDSELTSCNQFESLGGWGDAWGEIRFWKEFPDGPRKDATYDPKIRLKDGTLVDWWELKEDGTPVVPEHHPMFSIFSVNWDPASKVNTSAPYDYTKPASQNMCNDHRHRIIRYSEVLLWYAEAKARTGQTDELAFKCLNDVRERAGLEPLTGLSADDLAEAAYKEHGWEVAGYWVALVTRRADQFRMNRLKDTFKERAENTAVEVADGILVKESVEYTNRTWSDNLMYLPYPDMDSQKNPNLVR
# Tests used:
# Test in all cases: glycan array binding signal (z-score within array); higher = stronger binding
# Details in all cases: glycan notation: IUPAC condensed, linker removed
# GlcNAc(b1-3)Gal(b1-4)Glc = molecular target: GlcNAc(b1-3)Gal(b1-4)Glc
# Method in brief: (§1)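 The binding signal is a Z-score computed within each array. Data were drawn from 3228 arrays in the Consortium for Functional Glycomics database, restricted to those with a known protein sequence. Scores were averaged over arrays of the same protein sequence at different concentrations or buffers, and over linkers, and negative values can be taken as non-binding.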
# [1] = molecular target: GlcNAc(b1-3)Gal(b1-4)GlcNAc
# Method in brief: as §1
# [2] = molecular target: GlcNAc(b1-3)Gal(b1-4)GlcNAc(b1-2)Man(a1-3)[GlcNAc(b1-3)Gal(b1-4)GlcNAc(b1-2)Man(a1-6)]Man(b1-4)GlcNAc(b1-4)GlcNAc
# Method in brief: as §1
# [3] = molecular target: GlcNAc(b1-3)Gal(b1-4)GlcNAc(b1-2)Man(a1-3)[GlcNAc(b1-3)Gal(b1-4)GlcNAc(b1-2)Man(a1-6)]Man(b1-4)GlcNAc(b1-4)[Fuc(a1-6)]GlcNAc
# Method in brief: as §1
# [4] = molecular target: GlcNAc(b1-3)Gal(b1-4)GlcNAc(b1-2)[GlcNAc(b1-3)Gal(b1-4)GlcNAc(b1-6)]Man(a1-6)[GlcNAc(b1-3)Gal(b1-4)GlcNAc(b1-2)Man(a1-3)]Man(b1-4)GlcNAc(b1-4)GlcNAc
# Method in brief: as §1
# [5] = molecular target: GlcNAc(b1-3)Gal(b1-4)GlcNAc(b1-3)Gal(b1-4)GlcNAc
# Method in brief: as §1
# [6] = molecular target: GlcNAc(b1-3)Gal(b1-4)GlcNAc(b1-3)Gal(b1-4)GlcNAc(b1-2)Man(a1-3)[GlcNAc(b1-3)Gal(b1-4)GlcNAc(b1-3)Gal(b1-4)GlcNAc(b1-2)Man(a1-6)]Man(b1-4)GlcNAc(b1-4)GlcNAc
# Method in brief: as §1
# [7] = molecular target: GlcNAc(b1-3)Gal(b1-4)GlcNAc(b1-3)Gal(b1-4)GlcNAc(b1-2)Man(a1-3)[GlcNAc(b1-3)Gal(b1-4)GlcNAc(b1-3)Gal(b1-4)GlcNAc(b1-2)Man(a1-6)]Man(b1-4)GlcNAc(b1-4)[Fuc(a1-6)]GlcNAc
# Method in brief: as §1
# [8] = molecular target: GlcNAc(b1-3)Gal(b1-4)GlcNAc(b1-3)Gal(b1-4)GlcNAc(b1-2)[GlcNAc(b1-3)Gal(b1-4)GlcNAc(b1-3)Gal(b1-4)GlcNAc(b1-6)]Man(a1-6)[GlcNAc(b1-3)Gal(b1-4)GlcNAc(b1-3)Gal(b1-4)GlcNAc(b1-2)Man(a1-3)]Man(b1-4)GlcNAc(b1-4)[Fuc(a1-6)]GlcNAc
# Method in brief: as §1
# [9] = molecular target: GlcNAc(b1-3)Gal(b1-4)GlcNAc(b1-3)Gal(b1-4)GlcNAc(b1-3)Gal(b1-4)GlcNAc(b1-2)Man(a1-3)[GlcNAc(b1-3)Gal(b1-4)GlcNAc(b1-3)Gal(b1-4)GlcNAc(b1-3)Gal(b1-4)GlcNAc(b1-2)Man(a1-6)]Man(b1-4)GlcNAc(b1-4)GlcNAc
# Method in brief: as §1
# [10] = molecular target: GlcNAc(b1-3)Gal(b1-4)GlcNAc(b1-3)Gal(b1-4)GlcNAc(b1-3)Gal(b1-4)GlcNAc(b1-2)Man(a1-3)[GlcNAc(b1-3)Gal(b1-4)GlcNAc(b1-3)Gal(b1-4)GlcNAc(b1-3)Gal(b1-4)GlcNAc(b1-2)Man(a1-6)]Man(b1-4)GlcNAc(b1-4)[Fuc(a1-6)]GlcNAc
# Method in brief: as §1
# [11] = molecular target: GlcNAc(b1-3)Gal(b1-4)GlcNAc(b1-3)Gal(b1-4)GlcNAc(b1-3)Gal(b1-4)GlcNAc(b1-2)[GlcNAc(b1-3)Gal(b1-4)GlcNAc(b1-3)Gal(b1-4)GlcNAc(b1-3)Gal(b1-4)GlcNAc(b1-6)]Man(a1-6)[GlcNAc(b1-3)Gal(b1-4)GlcNAc(b1-3)Gal(b1-4)GlcNAc(b1-3)Gal(b1-4)GlcNAc(b1-2)Man(a1-3)]Man(b1-4)GlcNAc(b1-4)[Fuc(a1-6)]GlcNAc
# Method in brief: as §1
# [12] = molecular target: GlcNAc(b1-3)Gal(b1-4)GlcNAc(b1-3)Gal(b1-4)GlcNAc(b1-3)Gal(b1-4)GlcNAc(b1-3)Gal(b1-4)GlcNAc(b1-2)Man(a1-3)[GlcNAc(b1-3)Gal(b1-4)GlcNAc(b1-3)Gal(b1-4)GlcNAc(b1-3)Gal(b1-4)GlcNAc(b1-3)Gal(b1-4)GlcNAc(b1-2)Man(a1-6)]Man(b1-4)GlcNAc(b1-4)GlcNAc
# Method in brief: as §1
# [13] = molecular target: GlcNAc(b1-3)Gal(b1-4)GlcNAc(b1-3)Gal(b1-4)GlcNAc(b1-3)Gal(b1-4)GlcNAc(b1-3)Gal(b1-4)GlcNAc(b1-2)Man(a1-3)[GlcNAc(b1-3)Gal(b1-4)GlcNAc(b1-3)Gal(b1-4)GlcNAc(b1-3)Gal(b1-4)GlcNAc(b1-3)Gal(b1-4)GlcNAc(b1-2)Man(a1-6)]Man(b1-4)GlcNAc(b1-4)[Fuc(a1-6)]GlcNAc
# Method in brief: as §1
# [14] = molecular target: GlcNAc(b1-3)Gal(b1-4)GlcNAc(b1-3)Gal(b1-4)GlcNAc(b1-3)Gal(b1-4)GlcNAc(b1-3)Gal(b1-4)GlcNAc(b1-2)[GlcNAc(b1-3)Gal(b1-4)GlcNAc(b1-3)Gal(b1-4)GlcNAc(b1-3)Gal(b1-4)GlcNAc(b1-3)Gal(b1-4)GlcNAc(b1-6)]Man(a1-6)[GlcNAc(b1-3)Gal(b1-4)GlcNAc(b1-3)Gal(b1-4)GlcNAc(b1-3)Gal(b1-4)GlcNAc(b1-3)Gal(b1-4)GlcNAc(b1-2)Man(a1-3)]Man(b1-4)GlcNAc(b1-4)[Fuc(a1-6)]GlcNAc
# Method in brief: as §1
# [15] = molecular target: GlcNAc(b1-3)Gal(b1-4)GlcNAc(b1-3)Gal(b1-4)GlcNAc(b1-3)GalNAc
# Method in brief: as §1
# [16] = molecular target: GlcNAc(b1-3)Gal(b1-4)GlcNAc(b1-3)GalNAc
# Method in brief: as §1
# [17] = molecular target: GlcNAc(b1-3)Gal(b1-4)GlcNAc(b1-3)[GlcNAc(b1-3)Gal(b1-4)GlcNAc(b1-3)]GalNAc
# Method in brief: as §1
# [18] = molecular target: GlcNAc(b1-3)Gal(b1-4)GlcNAc(b1-6)[Gal(b1-3)]GalNAc
# Method in brief: as §1
# [19] = molecular target: GlcNAc(b1-3)Gal(b1-4)GlcNAc(b1-6)[GlcNAc(b1-3)Gal(b1-3)]GalNAc
# Method in brief: as §1
# [20] = molecular target: GlcNAc(b1-3)Gal(b1-4)GlcNAc(b1-6)[GlcNAc(b1-3)]Gal(b1-4)GlcNAc
# Method in brief: as §1
# GlcNAc(b1-3)GalNAc = molecular target: GlcNAc(b1-3)GalNAc
# Method in brief: as §1
# GlcNAc(b1-3)Man = molecular target: GlcNAc(b1-3)Man
# Method in brief: as §1
# [21] = molecular target: GlcNAc(b1-3)[GlcNAc(b1-4)][GlcNAc(b1-6)]GlcNAc
# Method in brief: as §1
# [22] = molecular target: GlcNAc(b1-3)[GlcNAc(b1-6)]Gal(b1-4)GlcNAc
# Method in brief: as §1
# [23] = molecular target: GlcNAc(b1-3)[GlcNAc(b1-6)]GalNAc
# Method in brief: as §1
# [24] = molecular target: GlcNAc(b1-4)Gal(b1-4)GlcNAc
# Method in brief: as §1
# GlcNAc(b1-4)GlcNAc = molecular target: GlcNAc(b1-4)GlcNAc
# Method in brief: as §1
# [25] = molecular target: GlcNAc(b1-4)GlcNAc(b1-4)GlcNAc
# Method in brief: as §1
# [26] = molecular target: GlcNAc(b1-4)GlcNAc(b1-4)GlcNAc(b1-4)GlcNAc(b1-4)GlcNAc
# Method in brief: as §1
# [27] = molecular target: GlcNAc(b1-4)GlcNAc(b1-4)GlcNAc(b1-4)GlcNAc(b1-4)GlcNAc(b1-4)GlcNAc
# Method in brief: as §1
# [28] = molecular target: GlcNAc(b1-4)[GlcNAc(b1-6)]GalNAc
# Method in brief: as §1
# [29] = molecular target: GlcNAc(b1-6)Gal(b1-4)GlcNAc
# Method in brief: as §1
# GlcNAc(b1-6)GalNAc = molecular target: GlcNAc(b1-6)GalNAc
# Method in brief: as §1
# [30] = molecular target: GlcNAc6S(b1-3)Gal(b1-4)GlcNAc
# Method in brief: as §1
# Kdn(a2-3)Gal(b1-3)GalNAc = molecular target: Kdn(a2-3)Gal(b1-3)GalNAc
# Method in brief: as §1
# Kdn(a2-3)Gal(b1-3)GlcNAc = molecular target: Kdn(a2-3)Gal(b1-3)GlcNAc
# Method in brief: as §1
binder,measurement,setting,value
B1,glycan array binding signal (z-score),GlcNAc(b1-3)Gal(b1-4)Glc,-0.311
same,glycan array binding signal (z-score),[1],-1.11
same,glycan array binding signal (z-score),[2],-0.394
same,glycan array binding signal (z-score),[3],-0.325
same,glycan array binding signal (z-score),[4],0.022
same,glycan array binding signal (z-score),[5],-0.272
same,glycan array binding signal (z-score),[6],-0.143
same,glycan array binding signal (z-score),[7],0.213
same,glycan array binding signal (z-score),[8],0.377
same,glycan array binding signal (z-score),[9],-0.471
same,glycan array binding signal (z-score),[10],-0.165
same,glycan array binding signal (z-score),[11],0.433
same,glycan array binding signal (z-score),[12],-1.33
same,glycan array binding signal (z-score),[13],0.42
same,glycan array binding signal (z-score),[14],-0.469
same,glycan array binding signal (z-score),[15],-1.04
same,glycan array binding signal (z-score),[16],0.026
same,glycan array binding signal (z-score),[17],-0.393
same,glycan array binding signal (z-score),[18],-0.575
same,glycan array binding signal (z-score),[19],0.662
same,glycan array binding signal (z-score),[20],-0.966
same,glycan array binding signal (z-score),GlcNAc(b1-3)GalNAc,-0.678
same,glycan array binding signal (z-score),GlcNAc(b1-3)Man,0.749
same,glycan array binding signal (z-score),[21],0.846
same,glycan array binding signal (z-score),[22],-0.97
same,glycan array binding signal (z-score),[23],-0.334
same,glycan array binding signal (z-score),[24],-0.74
same,glycan array binding signal (z-score),GlcNAc(b1-4)GlcNAc,0.217
same,glycan array binding signal (z-score),[25],-0.128
same,glycan array binding signal (z-score),[26],-0.115
same,glycan array binding signal (z-score),[27],-0.963
same,glycan array binding signal (z-score),[28],-0.28
same,glycan array binding signal (z-score),[29],-0.346
same,glycan array binding signal (z-score),GlcNAc(b1-6)GalNAc,0.612
same,glycan array binding signal (z-score),[30],-0.132
same,glycan array binding signal (z-score),Kdn(a2-3)Gal(b1-3)GalNAc,1.92
same,glycan array binding signal (z-score),Kdn(a2-3)Gal(b1-3)GlcNAc,-0.008

# Rewritten as tab-separated lines: part of the list above
binder	measurement	setting	value
B1	glycan array binding signal (z-score)	[16]	0.026
same	glycan array binding signal (z-score)	[19]	0.662
